For one substance, binding results are on record in article PMC11591752, “Novel Inhibitory Actions of Neuroactive Steroid [3α,5α]-3-Hydroxypregnan-20-One on Toll-like Receptor 4-Dependent Neuroimmune Signaling” (Biomolecules, 2024).

In this assay the target is T1, Toll-like receptor 4 (TLR4) (rat (endogenous in P rat hippocampus)) (UniProt Q9QX05).
T1 sequence: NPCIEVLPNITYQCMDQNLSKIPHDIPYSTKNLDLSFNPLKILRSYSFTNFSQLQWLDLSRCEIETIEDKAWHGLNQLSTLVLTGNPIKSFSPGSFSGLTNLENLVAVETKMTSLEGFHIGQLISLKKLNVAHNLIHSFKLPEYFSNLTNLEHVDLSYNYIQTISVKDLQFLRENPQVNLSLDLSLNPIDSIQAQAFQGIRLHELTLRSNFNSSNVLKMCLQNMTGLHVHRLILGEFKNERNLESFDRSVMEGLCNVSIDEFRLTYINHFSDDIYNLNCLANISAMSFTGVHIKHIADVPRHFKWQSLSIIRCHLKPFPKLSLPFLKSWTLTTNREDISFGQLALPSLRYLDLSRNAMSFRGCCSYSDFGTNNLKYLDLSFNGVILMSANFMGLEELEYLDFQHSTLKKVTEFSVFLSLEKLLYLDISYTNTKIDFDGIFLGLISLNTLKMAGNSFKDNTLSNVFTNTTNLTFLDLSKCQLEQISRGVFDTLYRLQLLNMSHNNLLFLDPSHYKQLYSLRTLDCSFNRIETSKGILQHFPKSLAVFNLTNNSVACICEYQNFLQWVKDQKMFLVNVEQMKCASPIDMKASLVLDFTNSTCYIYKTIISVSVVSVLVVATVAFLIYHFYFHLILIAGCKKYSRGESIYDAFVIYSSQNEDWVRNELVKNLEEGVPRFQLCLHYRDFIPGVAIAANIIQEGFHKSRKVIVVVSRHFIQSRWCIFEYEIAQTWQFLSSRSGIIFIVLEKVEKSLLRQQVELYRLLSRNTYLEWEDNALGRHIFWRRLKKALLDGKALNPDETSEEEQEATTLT
Nature of the assay: co-IP; TLR4 antibody (6 µg, Santa Cruz SC-25) on hippocampal lysate of male and female P rats, Protein G agarose, immunoblot for MD-2; animals treated with vehicle or 3α,5α-THP (15 mg/kg, 30 min) before. (In general: A western blot detects proteins with antibodies after separation by electrophoresis.)

These are yes or no findings as the source states them, for the method shown. In cells and extracts the contact can be indirect. Binding calls can cover weak binding; strength is not graded here.

Regarding “myeloid differentiation factor 2 (MD-2) (rat (endogenous in P rat hippocampus))”, the binding result is listed as “binds”.
